Results reported in article PMC9727647.
No constants are given. Whether binding was seen depends on the method and setting. Binding seen in cells or lysates may run through a third protein. Some entries that bind do so weakly or less than the wild type.

Sequences of proteins named here, by UniProt entry; tags and fusion partners are left off.
UniProt Q8N1E6: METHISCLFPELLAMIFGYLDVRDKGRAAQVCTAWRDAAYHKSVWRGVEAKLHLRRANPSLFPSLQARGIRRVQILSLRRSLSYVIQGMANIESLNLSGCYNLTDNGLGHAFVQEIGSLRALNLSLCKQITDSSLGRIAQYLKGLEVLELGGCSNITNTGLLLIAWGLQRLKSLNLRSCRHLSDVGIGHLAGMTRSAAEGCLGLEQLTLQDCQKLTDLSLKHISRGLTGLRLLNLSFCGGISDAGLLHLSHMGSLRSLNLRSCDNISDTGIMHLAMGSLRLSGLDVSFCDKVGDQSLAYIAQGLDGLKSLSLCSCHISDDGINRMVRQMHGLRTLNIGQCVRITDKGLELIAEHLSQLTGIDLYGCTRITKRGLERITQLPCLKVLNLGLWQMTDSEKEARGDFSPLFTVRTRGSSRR
UniProt O95602: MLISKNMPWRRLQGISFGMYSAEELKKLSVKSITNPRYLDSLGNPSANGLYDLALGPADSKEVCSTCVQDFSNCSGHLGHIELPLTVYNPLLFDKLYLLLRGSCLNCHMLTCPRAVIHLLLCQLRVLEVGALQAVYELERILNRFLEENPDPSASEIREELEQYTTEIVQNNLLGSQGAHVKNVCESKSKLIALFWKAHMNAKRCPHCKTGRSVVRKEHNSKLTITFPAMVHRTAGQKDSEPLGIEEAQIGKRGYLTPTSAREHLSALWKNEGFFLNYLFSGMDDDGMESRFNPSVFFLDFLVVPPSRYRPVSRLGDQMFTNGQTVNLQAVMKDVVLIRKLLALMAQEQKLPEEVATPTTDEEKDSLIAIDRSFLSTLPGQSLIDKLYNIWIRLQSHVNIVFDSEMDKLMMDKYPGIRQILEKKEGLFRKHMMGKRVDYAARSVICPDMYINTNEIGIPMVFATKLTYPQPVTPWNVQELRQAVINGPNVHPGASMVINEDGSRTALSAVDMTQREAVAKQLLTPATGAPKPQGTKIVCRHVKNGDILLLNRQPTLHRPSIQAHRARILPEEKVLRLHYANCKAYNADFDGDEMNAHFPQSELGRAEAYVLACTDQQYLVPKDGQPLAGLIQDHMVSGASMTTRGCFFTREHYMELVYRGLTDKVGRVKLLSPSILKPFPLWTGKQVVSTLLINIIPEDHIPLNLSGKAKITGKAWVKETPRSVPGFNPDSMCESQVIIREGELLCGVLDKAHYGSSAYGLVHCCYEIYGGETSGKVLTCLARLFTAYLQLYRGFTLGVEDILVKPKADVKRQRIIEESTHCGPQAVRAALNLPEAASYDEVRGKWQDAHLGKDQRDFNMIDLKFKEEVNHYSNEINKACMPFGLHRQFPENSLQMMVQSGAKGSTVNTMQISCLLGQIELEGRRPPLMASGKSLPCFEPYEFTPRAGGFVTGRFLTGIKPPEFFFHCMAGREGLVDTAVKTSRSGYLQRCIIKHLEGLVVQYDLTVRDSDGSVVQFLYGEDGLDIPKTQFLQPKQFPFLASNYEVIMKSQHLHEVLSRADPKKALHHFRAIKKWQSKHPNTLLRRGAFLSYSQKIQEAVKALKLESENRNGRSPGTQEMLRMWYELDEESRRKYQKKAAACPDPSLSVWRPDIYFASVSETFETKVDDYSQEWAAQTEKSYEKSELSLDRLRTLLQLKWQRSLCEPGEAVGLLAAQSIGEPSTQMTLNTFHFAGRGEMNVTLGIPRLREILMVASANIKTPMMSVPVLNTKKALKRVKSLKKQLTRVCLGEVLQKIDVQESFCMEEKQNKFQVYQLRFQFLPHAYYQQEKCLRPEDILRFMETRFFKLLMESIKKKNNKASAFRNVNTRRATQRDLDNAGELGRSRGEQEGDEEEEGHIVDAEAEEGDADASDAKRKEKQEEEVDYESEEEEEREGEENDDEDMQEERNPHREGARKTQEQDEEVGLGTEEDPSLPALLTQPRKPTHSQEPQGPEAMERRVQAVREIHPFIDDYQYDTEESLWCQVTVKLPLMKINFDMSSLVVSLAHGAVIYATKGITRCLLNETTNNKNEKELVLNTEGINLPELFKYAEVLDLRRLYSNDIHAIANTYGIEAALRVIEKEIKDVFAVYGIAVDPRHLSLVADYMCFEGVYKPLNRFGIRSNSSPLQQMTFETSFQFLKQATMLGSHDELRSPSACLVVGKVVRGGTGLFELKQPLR

Experiments:
[1] = target: Myc-tagged FBXL14 (FBXL14-Myc), in vitro translated (UniProt Q8N1E6); test: co-IP; both proteins in vitro translated in reticulocyte lysate, equal amounts mixed and incubated 30 min at 30 C; precipitated with Myc-tag antibody 4A6 overnight, blotted for RPA194 and FBXL14-Myc
[2] = target: Myc-tagged FBXL14 (FBXL14-Myc), stably expressed in A375 cells (UniProt Q8N1E6); test: co-IP; A375 cells stably expressing RPA194-HA and FBXL14-Myc, treated with or without BMH-21 (1 uM) and MG132 (10 uM) for 4 h; RIPA lysate diluted in 0.5% NP-40 buffer (50 mM Tris-HCl pH 7.5, 150 mM NaCl); precipitated with Myc-tag antibody 4A6 overnight at 4 C, blotted for RPA194 and FBXL14-Myc

Substance | binding [1] | binding [2]
HA-tagged RPA194, in vitro translated (from pCMV6-AC-RPA194-HA-His) (from UniProt O95602 1-1720) | binds | –
hemagglutinin (HA)-tagged RPA194 (RPA194-HA), stably expressed in A375 cells (from UniProt O95602 1-1720) | – | binds
